PubChem BioAssay AID1053208 | Peter MacCallum Cancer Centre – 2014
Shown is an unselected part of about 17,000 deposited reagents. Over the whole deposit, 788 (4.7%) were called active. 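Calls rest on z-score classes alone; an extra cut-off of viability at most 70% of control was not applied to them.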 Reagents against one gene are numbered here. Not all columns of the deposit are shown. No sequences are given here.

Test: 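Find knock-downs that sensitise mouse osteosarcoma cells to doxorubicin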 (primary screen)
Cell system: mouse osteosarcoma cells, early-passage culture from an engineered mouse model of fibroblastic bone tumour
Reagent: siRNA pool against mouse genes, 40 nM
Duration: about 120 h (48 h before drug, then 72 h with drug)
Challenge: doxorubicin 100 nM for 72 h, roughly 30-40% inhibitory dose
Measurement: 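Luminescent ATP signal taken as viability with or without 100 nM doxorubicin for 72 h; mean of two wells set against non-targeting siRNA and turned into robust z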
Reading the numbers: viability z-score with doxorubicin: higher = more viable cells under doxorubicin; viability z-score without drug: higher = more viable cells with knock-down alone
Hit rule: 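Called active if knock-down leaves viability unchanged without drug (z within -2 to 2) but lowers it with doxorubicin (z at or under -2)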

What did the screen give for Rtf2 (replication termination factor 2) #1?
combined z-score class: no change with or without drug; viability z-score with doxorubicin: 1.69; viability z-score without drug: 0; outcome: inactive

Which result is listed for Rtf2 (replication termination factor 2) #2?
combined z-score class: no change with or without drug; viability z-score with doxorubicin: -0.79; viability z-score without drug: -0.67; outcome: inactive

With Myl4 (myosin, light polypeptide 4), what was measured?
combined z-score class: no change with or without drug; viability z-score with doxorubicin: -0.45; viability z-score without drug: -1.35; outcome: inactive

With Tmed3 (transmembrane p24 trafficking protein 3), what was measured?
combined z-score class: no change with or without drug; viability z-score with doxorubicin: 1.35; viability z-score without drug: 0.51; outcome: inactive

Which result is listed for Pelp1 (proline, glutamic acid and leucine rich protein 1)?
combined z-score class: no change with or without drug; viability z-score with doxorubicin: 0; viability z-score without drug: -0.84; outcome: inactive

With Zfand2a (zinc finger, AN1-type domain 2A), what does the deposit list?
combined z-score class: no change with or without drug; viability z-score with doxorubicin: 0; viability z-score without drug: 0.34; outcome: inactive

Which result is listed for Or7g28 (olfactory receptor family 7 subfamily G member 28)?
combined z-score class: no change with or without drug; viability z-score with doxorubicin: -1.12; viability z-score without drug: -0.84; outcome: inactive

For Fam149a (family with sequence similarity 149, member A), what does the deposit list?
combined z-score class: no change with or without drug; viability z-score with doxorubicin: 1.57; viability z-score without drug: 0.17; outcome: inactive

What did the screen give for Mbnl2 (muscleblind like splicing factor 2)?
combined z-score class: low cell count with doxorubicin only; viability z-score with doxorubicin: -4.05; viability z-score without drug: -1.85; outcome: active

How did the screen score Zfp647 (zinc finger protein 647)?
combined z-score class: no change with or without drug; viability z-score with doxorubicin: -1.01; viability z-score without drug: 1.18; outcome: inactive

For Jam3 (junction adhesion molecule 3), how do the results read?
combined z-score class: no change with or without drug; viability z-score with doxorubicin: -0.67; viability z-score without drug: 0.17; outcome: inactive

What did the screen give for Capza1 (capping actin protein of muscle Z-line subunit alpha 1)?
combined z-score class: no change with or without drug; viability z-score with doxorubicin: 0.22; viability z-score without drug: 0; outcome: inactive

Which result is listed for Blk (Blk proto-oncogene, Src family tyrosine kinase)?
combined z-score class: no change with or without drug; viability z-score with doxorubicin: 0.45; viability z-score without drug: 0.17; outcome: inactive

What did the screen give for Trmu (tRNA 5-methylaminomethyl-2-thiouridylate methyltransferase)?
combined z-score class: no change with or without drug; viability z-score with doxorubicin: 0; viability z-score without drug: 0; outcome: inactive

What is on record for Lrrn4 (leucine rich repeat neuronal 4)?
combined z-score class: high cell count without drug only; viability z-score with doxorubicin: 0.22; viability z-score without drug: 2.36; outcome: inactive

Which result is listed for Snapc1 (small nuclear RNA activating complex, polypeptide 1)?
combined z-score class: no change with or without drug; viability z-score with doxorubicin: -0.11; viability z-score without drug: 0.17; outcome: inactive

With Wdr7 (WD repeat domain 7), how do the results read?
combined z-score class: no change with or without drug; viability z-score with doxorubicin: -1.12; viability z-score without drug: -0.34; outcome: inactive

With Sike1 (suppressor of IKBKE 1) #1, how do the results read?
combined z-score class: no change with or without drug; viability z-score with doxorubicin: -0.67; viability z-score without drug: 0; outcome: inactive

With Sike1 (suppressor of IKBKE 1) #2, what was measured?
combined z-score class: high cell count with doxorubicin only; viability z-score with doxorubicin: 2.02; viability z-score without drug: 1.52; outcome: inactive

For Nphp3 (nephronophthisis 3 (adolescent)), what was measured?
combined z-score class: no change with or without drug; viability z-score with doxorubicin: 0.34; viability z-score without drug: -0.17; outcome: inactive

With Myadm (myeloid-associated differentiation marker), what was measured?
combined z-score class: no change with or without drug; viability z-score with doxorubicin: -1.01; viability z-score without drug: -1.18; outcome: inactive

With Mycl (Mycl proto-oncogene, bHLH transcription factor), how do the results read?
combined z-score class: no change with or without drug; viability z-score with doxorubicin: -1.01; viability z-score without drug: -0.84; outcome: inactive

With A830073O21Rik (RIKEN cDNA A830073O21 gene), how do the results read?
combined z-score class: no change with or without drug; viability z-score with doxorubicin: 0.34; viability z-score without drug: -0.51; outcome: inactive

How did the screen score Mllt3?
combined z-score class: no change with or without drug; viability z-score with doxorubicin: -1.57; viability z-score without drug: 0.17; outcome: inactive

What did the screen give for Ptbp1 (polypyrimidine tract binding protein 1)?
combined z-score class: no change with or without drug; viability z-score with doxorubicin: 0; viability z-score without drug: 1.01; outcome: inactive

For Bnip5 (BCL2 interacting protein 5), what was measured?
combined z-score class: high cell count without drug only; viability z-score with doxorubicin: -0.45; viability z-score without drug: 3.71; outcome: inactive

What is on record for Hmox2 (heme oxygenase 2)?
combined z-score class: no change with or without drug; viability z-score with doxorubicin: -1.24; viability z-score without drug: -0.84; outcome: inactive

Which result is listed for Btg4 (BTG anti-proliferation factor 4)?
combined z-score class: no change with or without drug; viability z-score with doxorubicin: 0.56; viability z-score without drug: -1.01; outcome: inactive

2 entries from above, reformatted.
gene symbol | reagent | combined z-score class | viability z-score with doxorubicin | viability z-score without drug | outcome
Rtf2 (replication termination factor 2) | 1 | no change with or without drug | 1.69 | 0 | inactive
Rtf2 (replication termination factor 2) | 2 | no change with or without drug | -0.79 | -0.67 | inactive
